Earlier results, collected in patent publication US20200323213A1, “Methods of use for compositions comprising biguanide compound and diol surfactant” (3M INNOVATIVE PROPERTIES COMPANY, priority 2014, published 2020).
Some entries share one result that the patent states for a list of compounds. At least one compound was matched to its structure with a doubt left.

Details: listed as Diacetate; cited from earlier work

Compound: CC(=O)O.CC(=O)O.NC(=N\CCCCCC/N=C(N)/N=C(\N)Nc1ccc(Cl)cc1)/N=C(\N)Nc1ccc(Cl)cc1 [diacetate]
- solubility in aqueous fluid: > 1 g/100 ml
